Measured values as given in PubChem BioAssay AID743266 (National Center for Advancing Translational Sciences (NCATS), 2014).
In all, about 410,000 compounds went through this assay and about 310 (0.076%) were called active. The shares of active, inactive and inconclusive entries below differ from those in the screen. Calls follow the shape of the dose curve; as a rule, active = well fitted activation curve with a large enough effect; inconclusive = small, poorly fitted or top-dose-only effect, or another doubt; inactive = no such curve, though single readings can be large or run the other way. A potency beside an inconclusive call is a rough fit, not a confirmed value.

Amino acid sequences for entries named in this document (tags omitted).
UniProt Q03431, whole entry, looked up: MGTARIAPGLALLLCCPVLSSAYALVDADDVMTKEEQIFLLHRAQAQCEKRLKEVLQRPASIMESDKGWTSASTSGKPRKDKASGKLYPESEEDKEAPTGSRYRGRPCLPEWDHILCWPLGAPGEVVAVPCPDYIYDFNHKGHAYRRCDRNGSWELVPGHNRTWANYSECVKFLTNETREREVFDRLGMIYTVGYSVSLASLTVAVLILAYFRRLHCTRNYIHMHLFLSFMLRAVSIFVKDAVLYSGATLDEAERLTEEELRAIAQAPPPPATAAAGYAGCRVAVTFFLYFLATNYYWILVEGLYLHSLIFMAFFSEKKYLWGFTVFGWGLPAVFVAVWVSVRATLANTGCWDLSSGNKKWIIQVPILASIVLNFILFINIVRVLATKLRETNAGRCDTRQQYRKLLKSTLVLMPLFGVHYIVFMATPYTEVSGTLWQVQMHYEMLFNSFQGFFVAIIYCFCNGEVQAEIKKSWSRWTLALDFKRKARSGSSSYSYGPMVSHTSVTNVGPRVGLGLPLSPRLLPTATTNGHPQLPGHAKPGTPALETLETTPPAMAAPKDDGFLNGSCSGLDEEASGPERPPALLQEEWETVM

Molecular target: Parathyroid hormone/parathyroid hormone-related peptide receptor (Homo sapiens) (UniProt Q03431)
Experiment: qHTS for PTHR1 Agonists: Primary Screen; also: nearly all actives have a fitted effect of over 55% in size
Conditions: HEK293 GP2 PTHR1 cells, GloSensor cAMP luminescence, 1 h; activation: at 115 µM (top of the series) unless noted; series mostly up to 115 µM
Outline: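 HEK-293-derived GP2 cells expressing PTHR1 and a GloSensor cAMP reporter, 3,000/well, plated overnight, given luciferin plus IBMX (each 0.5 mM as added) for 1 h at 37 °C, then compound for 1 h at 37 °C. Luminescence was read after 15 min at room temperature.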
Potency is read from the fitted curve at half-maximal effect.

SMILES | Potency | activation
c1ccc(CNc2ncnc3sc4c(c23)CCCC4)nc1 | inactive | –
CCN(CC)CCCNC(=S)N(CCO)Cc1cc2cc3c(cc2[nH]c1=O)OCO3 | inconclusive: 44.7 µM [activator, partial curve, poor fit] | –
COc1ccccc1-c1nnc2n1N=C(C)CS2 | – | inconclusive: 87.7% [activator] [at 57.5 µM]
CCc1ccccc1NC(=O)CCc1c(C)nc(SC)nc1C | inconclusive: 17.8 µM [activator, partial curve] | –
CNc1n[nH]c(=S)s1 | – | inconclusive: 32.7% [activator]
CCCc1cc(=O)[nH]c(SCC(=O)Nc2c(C)cccc2C)n1 | inconclusive: 39.8 µM [activator, single point] | –
Cc1cccc(C(=O)N2CCc3cc(CNC(=O)c4cc5ccccc5[nH]4)ccc32)c1 | inconclusive: 126 µM [activator, single point] | –
Cc1cc(O)c(C(C)C)cc1NS(=O)(=O)c1ccccc1 | inconclusive: 39.8 µM [activator, single point] | –
COc1ccc(-c2cnc3c(NC(C)=O)cc(-c4ccc(S(C)(=O)=O)cc4)cn23)cc1OC | inconclusive: 20 µM [activator, partial curve] | –
O=C(NCc1ccc(F)cc1Cl)c1cc(=O)[nH]c2ccc(S(=O)(=O)N3CCCCC3)cc12 | inconclusive: 56.2 µM [activator, partial curve, poor fit] | –
COCCCNC(=O)c1cc(-c2cccnc2)nc2ccc(S(=O)(=O)N3CCCCCC3)cc12 | – | inconclusive: 37.1% [activator]
CCOC(=O)c1c(C)nc2c(c1-c1cc(OC)c(OC)c(OC)c1)C(=O)c1ccccc1-2 | – | inconclusive: 46.1% [activator] [at 57.5 µM]
CC1(C)CC(=O)C=C(N2CCNCC2)C1 | inconclusive: 12.6 µM [activator, full curve, poor fit] | –
Cc1ccsc1CCN1C(=O)N(c2ccccc2)C(=O)C1CC(=O)Nc1ccc(Cl)cc1 (centres undefined) | inactive | –
CCN(CC)C(=O)c1sc2c(c1C)c(=O)n(-c1ccc(C)c(C)c1)c(=O)n2Cc1cc(=O)n2ccccc2n1 | inconclusive: 14.1 µM [activator, partial curve, poor fit] | –
O=[N+]([O-])c1ccc(S(=O)(=O)NN=Cc2ccc(Cl)c(Cl)c2)cc1 | inactive | –
C#CCOCCOCCOCCNc1nc(N2CCN(C(=O)CCCCCCCCCCNC(=O)Cn3cc(C[C@@H](C)O)nn3)CC2)nc(N2CCN(C(=O)CCCCCCCCCCNC(=O)[C@@H]([C@H](C)CC)n3cc(CCCCCN)nn3)CC2)n1 | – | inconclusive: -90.3% [activator]
CCOc1cc(CNCc2ccncc2)cc(Cl)c1OC | – | inconclusive: 58.5% [activator]
NS(=O)(=O)c1ccc(CCNC(=O)C2CCN(c3ncnc4c3nc3n4CCCCC3)CC2)cc1 | inactive | –
CCC(Sc1nc2c(sc3ccccc32)c(=O)n1CCc1ccc(OC)c(OC)c1)C(=O)N(CC)CC (centres undefined) | inactive | –
Cn1c(CNc2ccc(Cl)cc2)nnc1SCCN1CCCCC1 | inactive | –
O=C(NCC(c1ccc2c(c1)OCO2)N1CCOCC1)c1ccccc1 (centres undefined) | inconclusive: 44.7 µM [activator, partial curve, poor fit] | –
COC1CCN(Cc2c(C(=O)N3C[C@@H](C)O[C@@H](C)C3)nc3ccc(Cl)cn23)CC1 | – | inconclusive: 31.1% [activator]

SMILES | Potency | activation
O=C(NCc1cccnc1)Nc1cccc(Cl)c1Cl | inconclusive: 112 µM [activator, single point] | –
O=C(N/N=C/c1cccnc1)c1cc(O)c(O)c(O)c1 | – | inconclusive: 47.4% [activator]
N=c1ccn(Cc2ccc([N+](=O)[O-])cc2)cc1 | inconclusive: 31.6 µM [activator, single point] | –
COc1ccc(NC(=O)Cn2c(=O)oc3ccccc32)cc1 | inconclusive: 141 µM [activator, single point] | –
CN(C)c1ccc(N/C(N)=N/c2nc(C(F)(F)F)cc(C(F)(F)F)n2)cc1 | – | inconclusive: 58.6% [activator]
CN(C)c1nc(Nc2ccc(Cl)cc2)nc(OCC#N)n1 | inactive | –
CCOc1c(CNCCN2CCOCC2)cccc1OC | inconclusive: 35.5 µM [activator, partial curve, poor fit] | –
COC(=O)Nc1nn(-c2ccc(C)cc2)c(=O)c(C#N)c1C | inconclusive: 22.4 µM [activator, single point] | –
COc1ccc(/C=C/C(=O)N2CCNC(=O)C2)c(OC)c1 | inconclusive: 10 µM [activator, partial curve, poor fit] | –
CC1NC(=O)NC1CCCCCC(=O)Nc1ccc(F)c(Cl)c1 (centres undefined) | inactive | –
COc1ccc(Cl)cc1NC(=S)NCCc1c[nH]c2ccccc12 | inconclusive: 25.1 µM [activator, partial curve, poor fit] | –
CCC(NC(C)C)C(O)c1ccc(O)c2[nH]c(=O)ccc12 (centres undefined) | – | inconclusive: 31.4% [activator]
COc1cccc(Cc2nc3ccccc3nc2SCC(=O)NCCc2ccccc2)c1 | inactive | –
CC(C)OC(=O)Cn1c(=O)sc2ccccc21 | inconclusive: 56.2 µM [activator, single point] | –
Clc1ccsc1-c1ccnc(-n2cccc2)n1 | inconclusive: 25.1 µM [activator, partial curve, poor fit] | –
Cn1c(=O)c2c(ncn2CC(=O)OCC(=O)c2ccc(Cl)cc2)n(C)c1=O | inconclusive: 39.8 µM [activator, partial curve] | –
CN(C)S(=O)(=O)n1cc(/C=C(\NC(=O)c2ccccc2)C(=O)NCCCN2CCOCC2)c2ccccc21 | inconclusive: 63.1 µM [activator, partial curve, poor fit] | –
COc1ccc(C)cc1Nc1nc2ccccc2c2nnc(C)n12 | inconclusive: 63.1 µM [activator, partial curve, poor fit] | –
O=C(c1csc2c1CCCC2)N1CCN(c2ncccn2)CC1 | inconclusive: 2.82 µM [activator, partial curve, poor fit] | –
CCCOc1ccccc1C1NC(=O)NC(C)=C1C(=O)OCc1ccccc1 (centres undefined) | inconclusive: 1.78 µM [activator, partial curve] | –
Cc1ccc(SCC(=O)NCCCc2ccccc2)cc1 | inconclusive: 25.1 µM [activator, single point] | –
C/C(=N\Nc1ccccn1)c1ccc(Br)s1 | – | inconclusive: 33.4% [activator]
NNC(=S)Nc1c(F)cc(F)cc1Br | inactive | –

SMILES | Potency | activation
COC(=O)c1ccc(COc2ccc(NC(C)=O)cc2)o1 | inconclusive: 126 µM [activator, single point] | –
CCOC(=O)c1cccc(NC(=O)CS(=O)(=O)Cc2nc(-c3cccc(OC)c3)oc2C)c1 | inconclusive: 15.8 µM [activator, partial curve, poor fit] | –
O=C(NCc1ccccc1)C1=C[C@H](c2csc3ccccc23)C[C@H](OCc2ccc(CO)cc2)O1 | inactive | –
O=C1ON=C(c2ccccc2)/C1=C/c1cccnc1 | inconclusive: 56.2 µM [activator, partial curve, poor fit] | –
Cc1c(C(=O)NCc2ccc(Cl)cc2)sc2nc3n(c(=O)c12)CCCC3 | inactive | –
CCn1c(C)cc(C)c(C#N)c1=O | – | inconclusive: 81.6% [activator]
CCCSc1cc(N2CCN(C)CC2)nc(-c2ccc(OC)cc2)n1 | inconclusive: 44.7 µM [activator, single point] | –
COc1ccc(C(=O)Cn2nc(CNc3ccc(Br)cc3)[n+]3c2CCCCC3)cc1 | inconclusive: 126 µM [activator, single point] | –
O=C(N/N=C\c1ccc(Cl)s1)C1COc2ccccc2O1 (centres undefined) | inactive | –
C=CCNC(=S)Nc1cccc(N)c1 | inconclusive: 112 µM [activator, single point] | –
Cc1ccc(NC(=O)c2nc(S(C)(=O)=O)ncc2N(Cc2ccco2)Cc2ccccc2F)c(C)c1 | inactive | –
CC(=O)Nc1ccc(S(=O)(=O)N(C)CC(=O)OCC(=O)c2ccc3c(c2)NC(=O)CO3)cc1 | inconclusive: 112 µM [activator, single point] | –
CCC1=Nc2cc(C(=O)O)ccc2Sc2ccccc21 | inactive | –
CC1CC2=C(NC(=S)NC2c2ccc(F)cc2)/C(=C/c2ccc(F)cc2)C1 (centres undefined) | inactive | –
CCCN(Cc1cccs1)C(=O)Nc1cc(C)ccc1OC | inactive | –
CC1(C(=O)NCCC#N)CCN1C(=O)C1(c2ccccc2)CC1 (centres undefined) | – | inconclusive: 34.1% [activator]
O=C(CN1C(=O)NC2(CCCCC2)C1=O)NCc1cccs1 | inconclusive: 50.1 µM [activator, partial curve, poor fit] | –
CCCCCC(CC(=O)NO)C(=O)NC(C(=O)N1CCCC1CO)C(C)C (centres undefined) | inconclusive: 4.47 µM [activator, partial curve, poor fit] | –
Cc1cccc(N2CCN(C(=O)c3ccc4nc(-c5ccco5)c(-c5ccco5)nc4c3)CC2C)c1 (centres undefined) | – | inconclusive: -63.8% [activator] [at 57.5 µM]
O=C(/C=C/c1ccccc1[N+](=O)[O-])NNC(=O)c1ccncc1 | inconclusive: 35.5 µM [activator, full curve, poor fit] | –
Nc1cc(Cl)nc(N/N=C/c2c(O)ccc3ccccc23)n1 | – | inconclusive: -72.9% [activator]
COCCNC(=O)C1(C)CCCN(Cc2cccc(OC(=O)c3ccccc3)c2)C1 (centres undefined) | inactive | –
COC(=O)C1=C(C)N(Cc2ccc3c(c2)OCO3)C(=O)C1 | – | inconclusive: 34.8% [activator]

Entries above that have two or more sulfur atoms:
SMILES | Potency | activation
CNc1n[nH]c(=S)s1 | – | inconclusive: 32.7% [activator]
CCC(Sc1nc2c(sc3ccccc32)c(=O)n1CCc1ccc(OC)c(OC)c1)C(=O)N(CC)CC (centres undefined) | inactive | –

Compounds shown so far that have a nitro group on carbon (three):
SMILES | Potency | activation
O=[N+]([O-])c1ccc(S(=O)(=O)NN=Cc2ccc(Cl)c(Cl)c2)cc1 | inactive | –
N=c1ccn(Cc2ccc([N+](=O)[O-])cc2)cc1 | inconclusive: 31.6 µM [activator, single point] | –
O=C(/C=C/c1ccccc1[N+](=O)[O-])NNC(=O)c1ccncc1 | inconclusive: 35.5 µM [activator, full curve, poor fit] | –
